# Measured values published in the supplement of paper PMC12067093, “Discovery and optimisation of a covalent ligand for TRIM25 and its application to targeted protein ubiquitination” (Chemical Science, 2025).
# Chains of the proteins cited; added tags and fusions are not shown. Lines headed by an entry give the natural chain unless they say otherwise; changes in a name come on top.
# UniProt Q969S9: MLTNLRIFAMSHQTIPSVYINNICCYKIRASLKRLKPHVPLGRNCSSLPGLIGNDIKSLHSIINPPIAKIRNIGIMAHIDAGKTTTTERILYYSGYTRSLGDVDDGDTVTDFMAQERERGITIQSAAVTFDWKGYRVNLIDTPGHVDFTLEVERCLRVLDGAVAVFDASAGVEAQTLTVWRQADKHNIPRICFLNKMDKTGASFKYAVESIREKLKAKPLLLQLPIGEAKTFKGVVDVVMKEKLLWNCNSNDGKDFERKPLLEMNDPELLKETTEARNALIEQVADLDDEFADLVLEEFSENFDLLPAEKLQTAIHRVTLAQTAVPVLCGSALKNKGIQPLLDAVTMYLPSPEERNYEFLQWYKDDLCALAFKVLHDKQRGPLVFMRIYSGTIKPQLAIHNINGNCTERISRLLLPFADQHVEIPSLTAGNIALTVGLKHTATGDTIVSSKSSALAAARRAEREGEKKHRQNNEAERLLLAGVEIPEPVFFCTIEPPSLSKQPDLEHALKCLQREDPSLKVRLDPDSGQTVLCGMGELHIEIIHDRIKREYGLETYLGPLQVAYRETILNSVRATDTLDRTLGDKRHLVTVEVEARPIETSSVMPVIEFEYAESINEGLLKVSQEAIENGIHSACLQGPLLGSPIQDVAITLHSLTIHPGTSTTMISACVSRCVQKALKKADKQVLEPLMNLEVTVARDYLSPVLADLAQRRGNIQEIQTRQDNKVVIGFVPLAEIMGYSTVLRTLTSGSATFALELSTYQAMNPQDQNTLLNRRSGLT
# UniProt P57678: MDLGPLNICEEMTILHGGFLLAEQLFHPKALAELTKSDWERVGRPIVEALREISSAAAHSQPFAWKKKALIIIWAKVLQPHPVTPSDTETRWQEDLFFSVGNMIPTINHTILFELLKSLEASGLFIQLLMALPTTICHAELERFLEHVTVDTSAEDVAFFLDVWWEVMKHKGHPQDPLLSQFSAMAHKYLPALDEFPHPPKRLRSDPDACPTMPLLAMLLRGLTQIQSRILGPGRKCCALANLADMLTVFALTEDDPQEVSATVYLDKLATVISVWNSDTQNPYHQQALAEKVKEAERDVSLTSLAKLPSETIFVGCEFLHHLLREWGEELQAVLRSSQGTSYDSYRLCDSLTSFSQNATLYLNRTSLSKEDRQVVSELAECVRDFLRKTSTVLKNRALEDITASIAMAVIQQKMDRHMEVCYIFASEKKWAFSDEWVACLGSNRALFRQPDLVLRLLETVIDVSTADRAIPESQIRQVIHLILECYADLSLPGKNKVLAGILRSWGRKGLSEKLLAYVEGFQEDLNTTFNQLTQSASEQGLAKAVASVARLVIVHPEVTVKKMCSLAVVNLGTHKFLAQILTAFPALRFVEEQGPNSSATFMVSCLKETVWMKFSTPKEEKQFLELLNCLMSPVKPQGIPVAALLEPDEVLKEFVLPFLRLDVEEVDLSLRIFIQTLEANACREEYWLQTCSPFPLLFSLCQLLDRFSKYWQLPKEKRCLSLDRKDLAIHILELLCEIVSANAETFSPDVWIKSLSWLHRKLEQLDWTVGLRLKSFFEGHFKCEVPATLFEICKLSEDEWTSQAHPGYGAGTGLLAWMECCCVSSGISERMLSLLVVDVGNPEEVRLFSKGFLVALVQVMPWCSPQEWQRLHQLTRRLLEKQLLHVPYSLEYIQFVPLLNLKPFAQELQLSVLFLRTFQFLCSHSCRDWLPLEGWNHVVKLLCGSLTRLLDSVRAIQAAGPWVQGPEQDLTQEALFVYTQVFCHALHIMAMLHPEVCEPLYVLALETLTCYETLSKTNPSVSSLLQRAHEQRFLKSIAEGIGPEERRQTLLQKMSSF
# UniProt Q9H840: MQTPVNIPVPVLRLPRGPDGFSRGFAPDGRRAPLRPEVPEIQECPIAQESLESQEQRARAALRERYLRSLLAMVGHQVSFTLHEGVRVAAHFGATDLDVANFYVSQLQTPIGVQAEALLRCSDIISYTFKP
# UniProt Q9H3C7, whole entry, looked up: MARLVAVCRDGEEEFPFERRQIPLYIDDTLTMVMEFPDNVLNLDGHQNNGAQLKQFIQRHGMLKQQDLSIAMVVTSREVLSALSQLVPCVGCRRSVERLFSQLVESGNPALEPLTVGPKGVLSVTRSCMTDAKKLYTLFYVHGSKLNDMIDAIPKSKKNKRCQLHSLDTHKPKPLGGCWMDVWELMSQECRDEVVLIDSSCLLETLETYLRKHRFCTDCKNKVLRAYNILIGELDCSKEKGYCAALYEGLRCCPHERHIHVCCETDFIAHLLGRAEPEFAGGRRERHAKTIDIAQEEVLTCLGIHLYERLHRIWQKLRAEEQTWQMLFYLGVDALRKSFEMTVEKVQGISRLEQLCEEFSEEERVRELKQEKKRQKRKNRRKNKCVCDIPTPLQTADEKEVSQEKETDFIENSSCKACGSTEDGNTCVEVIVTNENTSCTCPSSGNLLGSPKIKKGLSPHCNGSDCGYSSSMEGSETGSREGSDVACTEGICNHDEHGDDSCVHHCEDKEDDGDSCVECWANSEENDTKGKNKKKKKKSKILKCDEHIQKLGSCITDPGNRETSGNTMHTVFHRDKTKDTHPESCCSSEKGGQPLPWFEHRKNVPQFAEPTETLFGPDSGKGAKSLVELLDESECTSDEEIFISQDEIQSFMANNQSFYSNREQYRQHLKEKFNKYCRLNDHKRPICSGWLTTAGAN
# UniProt Q8WXI9: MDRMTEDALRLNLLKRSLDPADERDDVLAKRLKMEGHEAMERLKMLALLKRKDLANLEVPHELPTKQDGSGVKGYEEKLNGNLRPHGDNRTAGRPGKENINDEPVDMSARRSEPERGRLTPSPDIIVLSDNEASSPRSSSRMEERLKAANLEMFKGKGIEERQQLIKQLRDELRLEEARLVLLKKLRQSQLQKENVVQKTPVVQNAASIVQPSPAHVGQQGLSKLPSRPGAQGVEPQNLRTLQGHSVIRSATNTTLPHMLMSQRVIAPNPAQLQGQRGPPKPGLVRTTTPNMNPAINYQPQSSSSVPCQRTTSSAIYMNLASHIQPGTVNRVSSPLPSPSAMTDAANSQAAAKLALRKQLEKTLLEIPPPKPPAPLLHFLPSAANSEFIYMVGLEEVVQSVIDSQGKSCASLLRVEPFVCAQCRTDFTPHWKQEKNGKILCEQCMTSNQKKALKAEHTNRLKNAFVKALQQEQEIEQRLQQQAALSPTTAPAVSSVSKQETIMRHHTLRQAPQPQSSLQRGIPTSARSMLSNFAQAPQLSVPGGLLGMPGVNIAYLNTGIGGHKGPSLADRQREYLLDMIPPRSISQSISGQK
# UniProt P48507: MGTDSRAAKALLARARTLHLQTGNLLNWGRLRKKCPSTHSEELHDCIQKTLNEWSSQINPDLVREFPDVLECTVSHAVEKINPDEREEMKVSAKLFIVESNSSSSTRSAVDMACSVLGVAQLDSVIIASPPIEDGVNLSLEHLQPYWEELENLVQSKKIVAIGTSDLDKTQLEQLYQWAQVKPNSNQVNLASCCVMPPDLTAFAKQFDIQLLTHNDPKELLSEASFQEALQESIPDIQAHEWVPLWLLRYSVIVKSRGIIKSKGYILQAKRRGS
# UniProt Q92616, whole entry, looked up: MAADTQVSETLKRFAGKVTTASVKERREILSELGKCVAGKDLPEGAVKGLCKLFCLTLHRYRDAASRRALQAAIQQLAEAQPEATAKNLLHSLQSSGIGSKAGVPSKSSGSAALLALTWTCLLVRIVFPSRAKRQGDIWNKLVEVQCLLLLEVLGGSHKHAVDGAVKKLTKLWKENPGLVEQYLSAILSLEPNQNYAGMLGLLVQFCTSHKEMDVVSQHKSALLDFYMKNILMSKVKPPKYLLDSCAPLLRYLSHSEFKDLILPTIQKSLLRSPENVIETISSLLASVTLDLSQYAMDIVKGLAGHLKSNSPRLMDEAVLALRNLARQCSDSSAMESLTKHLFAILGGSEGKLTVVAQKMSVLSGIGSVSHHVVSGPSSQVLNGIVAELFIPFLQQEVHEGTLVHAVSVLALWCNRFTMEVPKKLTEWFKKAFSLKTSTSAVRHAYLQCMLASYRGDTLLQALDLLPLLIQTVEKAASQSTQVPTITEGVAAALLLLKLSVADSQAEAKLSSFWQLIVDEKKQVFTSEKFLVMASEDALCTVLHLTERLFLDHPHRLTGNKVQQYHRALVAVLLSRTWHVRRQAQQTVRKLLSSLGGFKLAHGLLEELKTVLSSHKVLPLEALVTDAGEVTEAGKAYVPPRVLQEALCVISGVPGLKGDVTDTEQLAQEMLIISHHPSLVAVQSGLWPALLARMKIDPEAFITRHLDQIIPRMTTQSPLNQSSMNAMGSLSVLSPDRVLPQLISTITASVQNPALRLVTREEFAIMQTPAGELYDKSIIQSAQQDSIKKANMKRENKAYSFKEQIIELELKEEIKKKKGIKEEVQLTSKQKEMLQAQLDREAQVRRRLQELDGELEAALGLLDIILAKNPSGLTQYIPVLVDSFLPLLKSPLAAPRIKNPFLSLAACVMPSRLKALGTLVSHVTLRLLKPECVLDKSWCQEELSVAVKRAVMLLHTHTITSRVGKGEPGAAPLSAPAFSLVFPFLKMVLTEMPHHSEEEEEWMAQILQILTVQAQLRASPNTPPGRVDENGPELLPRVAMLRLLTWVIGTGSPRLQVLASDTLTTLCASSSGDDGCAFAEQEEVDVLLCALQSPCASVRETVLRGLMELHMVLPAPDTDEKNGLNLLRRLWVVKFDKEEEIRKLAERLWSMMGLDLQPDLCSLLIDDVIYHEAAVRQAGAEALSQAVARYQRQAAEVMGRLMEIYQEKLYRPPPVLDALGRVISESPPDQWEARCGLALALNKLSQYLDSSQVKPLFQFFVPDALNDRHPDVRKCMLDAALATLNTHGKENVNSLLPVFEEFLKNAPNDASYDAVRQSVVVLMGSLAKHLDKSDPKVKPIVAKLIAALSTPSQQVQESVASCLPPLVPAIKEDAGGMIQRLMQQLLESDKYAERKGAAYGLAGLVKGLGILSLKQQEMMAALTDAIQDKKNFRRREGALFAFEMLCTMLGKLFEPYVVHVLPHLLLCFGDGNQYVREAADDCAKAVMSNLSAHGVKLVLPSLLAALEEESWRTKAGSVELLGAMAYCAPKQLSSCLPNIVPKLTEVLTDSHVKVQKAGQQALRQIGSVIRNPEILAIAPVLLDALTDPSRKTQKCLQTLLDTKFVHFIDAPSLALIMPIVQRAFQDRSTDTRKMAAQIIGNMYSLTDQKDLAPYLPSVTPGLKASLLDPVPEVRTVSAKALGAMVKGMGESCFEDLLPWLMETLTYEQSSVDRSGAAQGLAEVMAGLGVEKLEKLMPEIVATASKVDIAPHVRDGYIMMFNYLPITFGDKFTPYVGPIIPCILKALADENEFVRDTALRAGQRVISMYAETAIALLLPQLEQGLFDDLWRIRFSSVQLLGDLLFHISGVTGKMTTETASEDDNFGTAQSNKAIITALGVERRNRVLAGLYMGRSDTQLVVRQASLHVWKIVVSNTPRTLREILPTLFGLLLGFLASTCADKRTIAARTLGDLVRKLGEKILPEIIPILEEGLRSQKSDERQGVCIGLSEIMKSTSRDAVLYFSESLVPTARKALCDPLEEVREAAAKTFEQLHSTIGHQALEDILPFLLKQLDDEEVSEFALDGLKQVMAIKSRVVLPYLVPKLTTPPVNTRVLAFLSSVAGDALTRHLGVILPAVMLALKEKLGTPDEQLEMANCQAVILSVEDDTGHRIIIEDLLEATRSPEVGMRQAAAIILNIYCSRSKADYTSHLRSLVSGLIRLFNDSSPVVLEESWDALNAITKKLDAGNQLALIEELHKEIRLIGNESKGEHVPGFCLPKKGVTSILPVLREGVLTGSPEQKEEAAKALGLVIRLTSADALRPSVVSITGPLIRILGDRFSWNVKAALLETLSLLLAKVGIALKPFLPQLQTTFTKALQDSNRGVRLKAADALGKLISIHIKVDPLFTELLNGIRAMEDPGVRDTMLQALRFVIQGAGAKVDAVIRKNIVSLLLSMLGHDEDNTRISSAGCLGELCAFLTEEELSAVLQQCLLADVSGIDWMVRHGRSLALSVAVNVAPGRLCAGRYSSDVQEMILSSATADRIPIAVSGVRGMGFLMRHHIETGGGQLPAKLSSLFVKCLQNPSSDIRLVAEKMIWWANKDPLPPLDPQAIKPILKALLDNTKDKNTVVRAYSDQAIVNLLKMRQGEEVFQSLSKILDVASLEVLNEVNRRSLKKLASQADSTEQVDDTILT
# UniProt Q8WWP7: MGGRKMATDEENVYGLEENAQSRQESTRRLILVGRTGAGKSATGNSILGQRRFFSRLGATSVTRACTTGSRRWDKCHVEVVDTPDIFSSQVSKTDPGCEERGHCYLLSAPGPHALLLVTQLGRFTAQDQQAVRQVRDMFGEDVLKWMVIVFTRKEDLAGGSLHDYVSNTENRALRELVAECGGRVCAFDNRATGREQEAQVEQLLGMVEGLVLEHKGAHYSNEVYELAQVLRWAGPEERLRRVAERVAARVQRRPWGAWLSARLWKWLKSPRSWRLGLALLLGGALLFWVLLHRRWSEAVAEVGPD
# Some of the results follow.
# Compound: Cc1cc(ccc1-c1ccccc1)C(=O)N1CCCN(CC1)C(=O)CCl [compound 10]
# Assay: probe-labelled cysteine peptide fold change vs DMSO (competition) (log2 fold change); higher = less target engagement (more negative = stronger competition)
# Conditions: 50 µM; THP-1; incubation time: 4 h
# 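Also: competitive profiling in live THP-1 cells: cysteine peptides tagged with an iodoacetamide desthiobiotin (IA-DTB) probe, intensity after compound treatment relative to DMSO-treated cells.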
row,Target,probe-labelled cysteine peptide fold change
1,GEMIN5_Q8TEQ6_572_LICTIQQHHK (UniProt Q8TEQ6),0.173
2,GFM2_Q969S9_248_LLWNCNSNDGK (UniProt Q969S9),-0.937
3,GGA2_Q9UJY4_429_NLLDLLSAQPAPCPLNYVSQK (UniProt Q9UJY4),-0.871
4,GEMIN4_P57678_317_LPSETIFVGCEFLHHLLR (UniProt P57678),-0.175
5,GALT_P07902_180_GAMMGCSNPHPHCQVWASSFLPDIAQR (UniProt P07902),-0.506
6,GEMIN7_Q9H840_44_APLRPEVPEIQECPIAQESLESQEQR (UniProt Q9H840),-0.0736
7,GCFC2_P16383_595_VILEEHSTCENEVSK (UniProt P16383),-0.462
8,GIT2_Q14161_235_LAFYLCGR (UniProt Q14161),-0.172
9,GAMT_Q14353_91_VQEAPIDEHWIIECNDGVFQR (UniProt Q14353),0.00231
10,GGNBP2_Q9H3C7_89+92_EVLSALSQLVPCVGCR (UniProt Q9H3C7),-0.268
11,GATAD2B_Q8WXI9_444_ILCEQCMTSNQK (UniProt Q8WXI9),-0.214
12,GATAD2B_Q8WXI9_420+423_VEPFVCAQCR (UniProt Q8WXI9),-0.391
13,GFI1_Q99684_155_GAGLGLFCEPAPEPGHPAALYGPK (UniProt Q99684),1.62
14,GEMIN4_P57678_382_QVVSELAECVR (UniProt P57678),-0.0601
15,GBA2_Q9HCG7_511_NMCHLRPTLR (UniProt Q9HCG7),0.0972
16,GCLM_P48507_35+46_CPSTHSEELHDCIQK (UniProt P48507),-0.843
17,GALNT6_Q8NCL4_165_SLGPDTRPPECVDQK (UniProt Q8NCL4),0.036
18,GCN1_Q92616_907_NPFLSLAACVMPSR (UniProt Q92616),0.292
19,GCN1_Q92616_932_LLKPECVLDK (UniProt Q92616),-0.11
20,GDI2_P50395_302_VICILSHPIK (UniProt P50395),-0.0296

row,Target,probe-labelled cysteine peptide fold change
1,GEMIN2_O14893_264_DDERVPALNLLICLVSR (UniProt O14893),0.116
2,GCN1_Q92616_1235_CGLALALNK (UniProt Q92616),-0.353
3,GCN1_Q92616_1535_QLSSCLPNIVPK (UniProt Q92616),-0.263
4,GATD1_Q8NB37_122_ILQHFHSESKPICAVGHGVAALCCATNEDR (UniProt Q8NB37),-0.0492
5,GEMIN7_Q9H840_44_RAPLRPEVPEIQECPIAQESLESQEQR (UniProt Q9H840),-1.01
6,GART_P22102_93_SAGVQCFGPTAEAAQLESSKR (UniProt P22102),-0.205
7,GGPS1_O95749_205_SFCEDLTEGK (UniProt O95749),-0.233
8,GIPC3_Q8TF64_152+168_IEAVCVGDSIEAINDHSIVGCR (UniProt Q8TF64),-0.181
9,GANAB_Q14697_502_DGSDYEGWCWPGSAGYPDFTNPTMR (UniProt Q14697),0.0705
10,GAS7_O60861_318_CDHHIADLR (UniProt O60861),0.152
11,GCN1_Q92616_648_VLQEALCVISGVPGLK (UniProt Q92616),-0.0828
12,GCLC_P48506_615_CNQIANELCECPELLGSAFR (UniProt P48506),0.0454
13,GFPT1_Q06210_570_GYHYATCLEGALK (UniProt Q06210),0.0897
14,GALK2_Q01415_407_LTGAGWGGCTVSMVPADKLPSFLANVHK (UniProt Q01415),-0.59
15,GCC2_Q8IWJ2_1306_VTALQEECR (UniProt Q8IWJ2),0.145
16,GIMAP1_Q8WWP7_98_TDPGCEER (UniProt Q8WWP7),-0.0834
17,GGNBP2_Q9H3C7_586_DTHPESCCSSEK (UniProt Q9H3C7),-0.298
18,GIT1_Q9Y2X7_674_HDSFVPCSEK (UniProt Q9Y2X7),-0.0553
19,GCLM_P48507_194_PNSNQVNLASCCVMPPDLTAFAK (UniProt P48507),-0.0543
20,GFM2_Q969S9_329_VTLAQTAVPVLCGSALK (UniProt Q969S9),0.0109
